PubChem BioAssay AID504764 – Drosophila RNAi Screening Center | 2011

Test: 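Genes whose knock-down alters Notch-dependent transcription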 (primary screen)
Cell system: Drosophila Kc167 cells
Reagent: long dsRNA against Drosophila genes
Duration: about 5 days (4 days dsRNA, then 24 h after transfection)
Treatment: transfection of constitutively active membrane-tethered Notch lacking the extracellular domain, read 24 h later
Measurement: 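Firefly luciferase from an E(spl)m3 reporter with active Notch, plus control-promoter and uninduced reporter wells for normalisation; unnormalised counts, duplicate wells a and b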
Scale: induced reporter light, run 1, well a and induced reporter light, run 1, well b: higher = more light from the Notch target reporter with active Notch; control promoter light, run 1, well a and control promoter light, run 1, well b: higher = more light from the viral control promoter (cell number, transfection, viability); uninduced reporter light, run 1, well a: higher = more light from the Notch target reporter without active Notch
Hit rule: 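Hit if the duplicate-averaged log2 ratio of induced to control-promoter light gives a plate-wise z beyond ±2, or induced to uninduced beyond ±1.8; weak-control or discordant-duplicate wells dropped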
Meaning of the calls: active = modifier hit (raised or lowered Notch signal); inactive = not a hit
The deposit covers about 22,000 reagents; shown is an unselected part of those with a known target gene and a result. Of all reagents, 403 (1.9%) were called active. 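Unnormalised raw counts per well; ratio z-scores behind the hit calls and whether each hit raises or lowers signal are not deposited.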 Entries without a mark were called inactive. Names joined by + are all predicted targets of the reagent. The record does not give: the amount of reagent.

gene,amplicon,"induced reporter light, run 1, well a","induced reporter light, run 1, well b","control promoter light, run 1, well a","control promoter light, run 1, well b","uninduced reporter light, run 1, well a"
CG1806,DRSC19787,1.86e5,1.96e5,2.38e5,2.26e5,14620
CG13319,DRSC06356,1.99e5,1.97e5,2.86e5,2.81e5,15145
Cdc27,DRSC11112,49210,48230,37645,16880,3270
Sp7,DRSC15461,52140,75225,57865,49315,3505
csul,DRSC07599,1.25e5,1.02e5,1.30e5,1.29e5,9455
CG5961,DRSC15927,1.52e5,1.98e5,1.31e5,1.14e5,10620
CG2145,DRSC19835,1.75e5,1.64e5,2.82e5,2.63e5,13865
disco-r,DRSC20173,1.14e5,68940,91815,78475,11505
disco-r,DRSC20174,1.03e5,74305,96620,74205,11140
Cyp6v1,DRSC20565,1.00e5,99040,95405,1.01e5,10655
CG34348,DRSC19425,1.38e5,1.11e5,1.31e5,1.50e5,7840
CG34348,DRSC19644,91200,97945,1.16e5,1.41e5,8180
Uggt,DRSC11315,1.48e5,1.14e5,71755,80185,10085
ND-24L,DRSC10650,1.86e5,1.54e5,2.53e5,2.50e5,12020
Obp8a,DRSC17868,1.40e5,1.08e5,2.16e5,2.17e5,7905
Adck5,DRSC10890,1.30e5,1.43e5,1.80e5,1.52e5,8030
CG12911,DRSC06226,1.88e5,1.97e5,2.88e5,2.08e5,16590
PIG-C,DRSC08241,1.28e5,1.37e5,1.63e5,1.54e5,8610
CG13723,DRSC10052,2.55e5,2.45e5,3.47e5,3.32e5,13085
CG32176,DRSC10057,1.47e5,1.43e5,1.85e5,1.61e5,7590
CG32176,DRSC10058,1.21e5,1.26e5,2.04e5,1.78e5,6860
CG9360,DRSC20180,1.05e5,1.06e5,1.38e5,1.32e5,7850
CG30075,DRSC05484,2.06e5,2.74e5,2.65e5,2.71e5,18830
TM9SF2,DRSC03197,2.08e5,2.35e5,1.72e5,1.75e5,15915
Rab9Db + Rab9D + Rab9E,DRSC17656,66215,75730,85575,83355,5420
CG7330,DRSC10813,2.18e5,1.81e5,2.31e5,2.29e5,10295
CG7330,DRSC10814,2.54e5,1.99e5,2.49e5,2.17e5,7895
CG42674,DRSC10066,71920,58160,1.28e5,1.22e5,4380
CG42674,DRSC10067,1.38e5,1.34e5,1.90e5,1.35e5,9910
CG42674,DRSC10811,1.35e5,1.30e5,1.20e5,97645,10160
CG9485,DRSC04557,71835,89175,61035,67860,6380
Rlip,DRSC16828,1.83e5,1.49e5,1.98e5,1.83e5,12885
CG10298,DRSC12522,86640,98945,91575,76250,5665
Ir10a,DRSC18891,68880,74495,84340,64120,5195
Ir10a,DRSC19478,87350,87550,79915,87955,6890
Ir10a,DRSC19479,1.17e5,1.22e5,1.93e5,3.08e5,9770
CG42827 + CG42828,DRSC16116,1.53e5,1.42e5,1.83e5,1.78e5,11340
CG14100,DRSC10101,1.34e5,1.16e5,1.08e5,1.09e5,8200
CG11664,DRSC18650,1.26e5,1.08e5,1.65e5,1.97e5,9055
CG31205,DRSC13438,57060,40155,64365,57140,7640
slv,DRSC07685,2.21e5,2.09e5,2.55e5,2.50e5,17380
CG4291,DRSC00650,1.98e5,1.92e5,2.10e5,2.45e5,19510
bon,DRSC16914,1.12e5 (active),78615,1.77e5,1.70e5,9215
Cyt-c1,DRSC10447,1.24e5,1.20e5,1.02e5,47620,9910
CG13110,DRSC02208,1.27e5,1.56e5,77365,1.10e5,16710
CG32809,DRSC18507,2.16e5,1.90e5,2.94e5,2.67e5,13840
CG32809,DRSC18562,94920,92955,1.69e5,1.71e5,8850
CG32809,DRSC18592,1.60e5,2.03e5,2.57e5,2.49e5,12260
Det,DRSC14489,1.62e5,1.78e5,1.86e5,1.95e5,16720
CG11147,DRSC02129,1.04e5,1.26e5,1.36e5,1.08e5,6405

Entries listed above called active:
gene,amplicon,"induced reporter light, run 1, well a","induced reporter light, run 1, well b","control promoter light, run 1, well a","control promoter light, run 1, well b","uninduced reporter light, run 1, well a"
bon,DRSC16914,1.12e5 (active),78615,1.77e5,1.70e5,9215
